Results: US11660265B2, “Method of rapidly achieving therapeutic concentrations of triptans for treatment of migraines and cluster headaches” (ZP Opco, Inc., priority 2018, dated 2023)
Some entries share one result that the patent states for a list of compounds.

Protein sequences, listed by entry. Tags and fused reporters are not part of them. Lines headed by an entry give the natural chain unless they say otherwise; changes in a name come on top.
UniProt P28222, whole entry: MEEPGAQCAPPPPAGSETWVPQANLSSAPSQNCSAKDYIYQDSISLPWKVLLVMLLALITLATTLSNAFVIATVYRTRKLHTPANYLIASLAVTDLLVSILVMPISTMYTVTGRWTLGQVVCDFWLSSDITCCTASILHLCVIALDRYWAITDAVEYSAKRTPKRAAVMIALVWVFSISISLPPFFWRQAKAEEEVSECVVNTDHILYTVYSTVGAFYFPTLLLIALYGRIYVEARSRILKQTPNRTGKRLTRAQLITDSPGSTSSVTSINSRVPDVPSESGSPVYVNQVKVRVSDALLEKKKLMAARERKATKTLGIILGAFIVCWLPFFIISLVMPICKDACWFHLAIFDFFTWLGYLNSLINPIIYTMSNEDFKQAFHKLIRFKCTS
UniProt P28221: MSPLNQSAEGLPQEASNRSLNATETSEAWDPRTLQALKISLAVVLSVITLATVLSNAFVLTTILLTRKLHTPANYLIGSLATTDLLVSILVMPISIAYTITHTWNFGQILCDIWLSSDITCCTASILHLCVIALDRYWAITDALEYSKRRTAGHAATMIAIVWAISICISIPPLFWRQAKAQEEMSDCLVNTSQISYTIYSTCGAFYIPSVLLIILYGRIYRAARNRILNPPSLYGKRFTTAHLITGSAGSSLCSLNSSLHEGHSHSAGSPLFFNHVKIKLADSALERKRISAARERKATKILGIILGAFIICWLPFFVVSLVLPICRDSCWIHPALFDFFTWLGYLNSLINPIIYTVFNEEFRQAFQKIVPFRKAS

How the values were obtained:
[1] = target: T1, recombinant human 5-HT1B receptors (Homo sapiens, UniProt P28222); assay: Ligand-receptor binding kinetics, 3H-5-carboxamidotryptamine competition, CHO-K1 membranes; settings: P<0.05
T1 construct: expressed in transfected cells; host or cells: CHO-K1
Method: (§1) Membrane preparations were derived from transfected CHO-K1 cells expressing recombinant human 5-HT1B and 5-HT1D receptors. […] After incubating for various lengths of time, membranes were washed by filtration and residual ^3H counts were determined on a microplate scintillation counter. On-rate constant (kon), off-rate constant (koff), and equilibrium dissociation constant (KD) were determined using nonlinear regression on Prism 4 (GraphPad), and Xlfit (IDBM) software. The following formulae were used in calculating additional parameters using previously derived^2 pharmacokinetic data in healthy human volunteers. Residence time for each ligand on 5-HT1B and 5-HT1D receptors=1/koff.

[2] = target: T2, recombinant human 5-HT1D receptors (Homo sapiens, UniProt P28221); assay: as above; settings: P<0.05
T2 construct: expressed in transfected cells; host or cells: CHO-K1
Method: as §1

Structure (SMILES): CN(C)CCc1c[nH]c2ccc(C[C@H]3COC(=O)N3)cc12 [Zolmitriptan, zolmitriptan]
- kon, times faster than for sumatriptan [1]: 6-10 ×
- kon, times faster than for sumatriptan [2]: 6-10 ×
